According to PMC13626733, “Molecular basis of high-torque transmission of the Vibrio polar flagellar motor” (Protein & Cell, 2026):
Results are given in words; binding and its absence hold for the method and conditions named. Some binding calls cover weakened binding; strength is not graded here.

Target: T1, FliF (Vibrio alginolyticus (endogenous in strain KK148 ΔflgL)) (UniProt Q75N27)
T1 sequence: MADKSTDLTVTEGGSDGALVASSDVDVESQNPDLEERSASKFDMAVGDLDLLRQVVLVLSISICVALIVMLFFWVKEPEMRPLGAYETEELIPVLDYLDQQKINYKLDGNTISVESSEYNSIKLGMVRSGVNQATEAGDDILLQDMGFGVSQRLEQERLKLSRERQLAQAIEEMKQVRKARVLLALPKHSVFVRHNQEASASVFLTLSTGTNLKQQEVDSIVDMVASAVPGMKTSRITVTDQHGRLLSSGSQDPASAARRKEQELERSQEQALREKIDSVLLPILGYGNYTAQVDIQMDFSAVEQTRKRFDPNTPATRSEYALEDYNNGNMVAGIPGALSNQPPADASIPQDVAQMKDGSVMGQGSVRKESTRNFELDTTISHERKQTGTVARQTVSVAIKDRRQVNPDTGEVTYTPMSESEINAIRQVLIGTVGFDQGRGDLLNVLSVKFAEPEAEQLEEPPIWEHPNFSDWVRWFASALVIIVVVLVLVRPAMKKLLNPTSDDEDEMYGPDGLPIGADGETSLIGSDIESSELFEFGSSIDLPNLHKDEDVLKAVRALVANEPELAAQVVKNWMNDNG
Test: cryo-EM structure; polar flagellar motor-hook complex purified as a whole from V. alginolyticus KK148 ΔflgL; local refinements of the LPHT ring, hook, rod, export apparatus and MS ring; LPHT ring particles also obtained by disassembling the complex at reduced salt; both purified

binding: binds
B1: FlgC (protein, UniProt A0A0G9LZH2 1-137)
chain: MSLFNVFNVTGSAMSAESVRLNTTSSNLANADSVSSSAKDTYKARHAVFGAELSNAMRGGDTVPVKVMGIVESDKPLSAEYNPDHPLANEEGYIYKPNVNVMEEMANMISASRAYQTNVQVADSSKQMLLRTLQMGQ
